In PMC7862700:
Only a part is listed here, and it is no random draw. For part of these data: At the low end of the ranking, values are background and their order means little. The list shows a part of the results. For part of these data: Construct or isoform of the protein are uncertain.

By UniProt entry, the sequences of proteins in these tests, tags left out. Where a name states a change or a piece, a line headed by the entry shows the natural chain unless it says otherwise.
UniProt P32519: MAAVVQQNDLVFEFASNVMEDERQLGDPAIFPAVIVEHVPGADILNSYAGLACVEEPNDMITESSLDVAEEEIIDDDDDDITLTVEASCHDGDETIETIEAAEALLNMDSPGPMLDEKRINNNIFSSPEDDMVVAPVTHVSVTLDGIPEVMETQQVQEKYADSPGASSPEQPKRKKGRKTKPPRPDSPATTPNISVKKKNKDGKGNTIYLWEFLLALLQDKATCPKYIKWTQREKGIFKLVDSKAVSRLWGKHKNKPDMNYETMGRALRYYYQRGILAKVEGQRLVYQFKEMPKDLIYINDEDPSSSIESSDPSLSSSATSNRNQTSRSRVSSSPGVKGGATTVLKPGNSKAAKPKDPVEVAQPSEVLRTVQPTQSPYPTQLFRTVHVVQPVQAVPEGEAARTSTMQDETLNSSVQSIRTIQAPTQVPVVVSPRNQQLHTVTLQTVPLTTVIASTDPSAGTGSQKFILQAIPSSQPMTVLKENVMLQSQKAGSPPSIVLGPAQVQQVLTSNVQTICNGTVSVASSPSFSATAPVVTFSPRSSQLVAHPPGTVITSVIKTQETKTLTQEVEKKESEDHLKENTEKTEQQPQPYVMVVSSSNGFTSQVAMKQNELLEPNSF
UniProt P50549: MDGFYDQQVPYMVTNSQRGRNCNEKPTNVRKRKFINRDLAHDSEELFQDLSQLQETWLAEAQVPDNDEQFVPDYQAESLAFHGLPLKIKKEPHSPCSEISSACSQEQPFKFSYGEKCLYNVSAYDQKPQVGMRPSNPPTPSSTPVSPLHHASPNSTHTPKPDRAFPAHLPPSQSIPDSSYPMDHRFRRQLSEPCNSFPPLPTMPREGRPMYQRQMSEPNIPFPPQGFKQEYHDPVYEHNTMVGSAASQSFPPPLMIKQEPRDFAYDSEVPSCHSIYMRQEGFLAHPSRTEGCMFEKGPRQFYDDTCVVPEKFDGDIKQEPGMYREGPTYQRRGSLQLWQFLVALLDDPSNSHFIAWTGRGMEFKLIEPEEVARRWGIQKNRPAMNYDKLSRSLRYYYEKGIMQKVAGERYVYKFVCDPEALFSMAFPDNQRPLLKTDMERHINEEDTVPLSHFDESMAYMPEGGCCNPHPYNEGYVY

Assays:
Experiment in all cases: DAPPL (digital affinity profiling via proximity ligation, sequencing)
Settings in all cases: 10 mM Tris-HCl pH 7.5, 50 mM NaCl, 1 mM DTT, 4% glycerol, room temperature, 30 min; GST-TFs on glutathione beads, 16-mer random dsDNA library, 0.1% …; high values mean tight binding; double strand, one strand shown; scale: fold enrichment (6-mer frequency, TF over GST control)
ERG = biological target: T1, ERG (UniProt P11308)
T1 sequence: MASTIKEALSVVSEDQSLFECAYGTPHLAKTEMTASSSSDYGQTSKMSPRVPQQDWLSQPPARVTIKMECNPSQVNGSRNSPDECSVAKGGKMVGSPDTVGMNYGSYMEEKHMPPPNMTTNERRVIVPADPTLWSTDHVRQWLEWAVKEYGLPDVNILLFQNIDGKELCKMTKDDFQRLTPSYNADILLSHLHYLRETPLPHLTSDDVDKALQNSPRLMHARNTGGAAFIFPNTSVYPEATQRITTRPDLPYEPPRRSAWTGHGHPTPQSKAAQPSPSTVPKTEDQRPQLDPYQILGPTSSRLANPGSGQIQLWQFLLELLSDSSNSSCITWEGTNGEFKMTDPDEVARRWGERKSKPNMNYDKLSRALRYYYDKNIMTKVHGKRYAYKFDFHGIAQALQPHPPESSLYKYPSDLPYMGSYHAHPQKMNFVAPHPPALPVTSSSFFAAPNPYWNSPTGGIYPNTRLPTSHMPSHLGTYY

ELF1 = ELF1 (UniProt P32519)
ELK4 = biological target: T2, ELK4 (UniProt P28324-2)
T2 sequence: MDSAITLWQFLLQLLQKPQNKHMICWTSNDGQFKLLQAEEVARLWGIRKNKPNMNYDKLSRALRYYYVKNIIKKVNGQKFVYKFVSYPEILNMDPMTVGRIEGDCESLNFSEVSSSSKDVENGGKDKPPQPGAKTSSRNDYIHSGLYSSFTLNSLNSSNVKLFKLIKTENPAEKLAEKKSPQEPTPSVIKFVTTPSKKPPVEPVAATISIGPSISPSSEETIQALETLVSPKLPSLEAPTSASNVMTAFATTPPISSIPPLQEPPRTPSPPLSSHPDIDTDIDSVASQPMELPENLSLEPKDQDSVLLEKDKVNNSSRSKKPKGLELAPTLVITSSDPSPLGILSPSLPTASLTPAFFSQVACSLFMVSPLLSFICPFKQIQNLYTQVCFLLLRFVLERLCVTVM

ETV4 = biological target: T3, ETV4 (UniProt P43268)
T3 sequence: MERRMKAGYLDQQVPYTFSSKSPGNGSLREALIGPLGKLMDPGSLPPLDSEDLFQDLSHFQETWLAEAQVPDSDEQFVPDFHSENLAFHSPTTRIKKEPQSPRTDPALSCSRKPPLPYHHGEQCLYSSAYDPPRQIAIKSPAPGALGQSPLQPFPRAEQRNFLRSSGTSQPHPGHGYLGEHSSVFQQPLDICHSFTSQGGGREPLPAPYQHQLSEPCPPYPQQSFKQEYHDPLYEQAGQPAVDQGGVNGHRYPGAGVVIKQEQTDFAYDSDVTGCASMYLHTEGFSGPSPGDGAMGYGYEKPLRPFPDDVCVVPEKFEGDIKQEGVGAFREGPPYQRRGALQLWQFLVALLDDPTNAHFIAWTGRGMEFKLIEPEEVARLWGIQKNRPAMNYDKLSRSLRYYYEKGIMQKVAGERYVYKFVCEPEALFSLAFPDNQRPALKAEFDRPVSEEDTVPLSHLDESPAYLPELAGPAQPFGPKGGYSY

ETV1 = ETV1 (UniProt P50549)
ERF = biological target: T4, ERF (UniProt P50548)
T4 sequence: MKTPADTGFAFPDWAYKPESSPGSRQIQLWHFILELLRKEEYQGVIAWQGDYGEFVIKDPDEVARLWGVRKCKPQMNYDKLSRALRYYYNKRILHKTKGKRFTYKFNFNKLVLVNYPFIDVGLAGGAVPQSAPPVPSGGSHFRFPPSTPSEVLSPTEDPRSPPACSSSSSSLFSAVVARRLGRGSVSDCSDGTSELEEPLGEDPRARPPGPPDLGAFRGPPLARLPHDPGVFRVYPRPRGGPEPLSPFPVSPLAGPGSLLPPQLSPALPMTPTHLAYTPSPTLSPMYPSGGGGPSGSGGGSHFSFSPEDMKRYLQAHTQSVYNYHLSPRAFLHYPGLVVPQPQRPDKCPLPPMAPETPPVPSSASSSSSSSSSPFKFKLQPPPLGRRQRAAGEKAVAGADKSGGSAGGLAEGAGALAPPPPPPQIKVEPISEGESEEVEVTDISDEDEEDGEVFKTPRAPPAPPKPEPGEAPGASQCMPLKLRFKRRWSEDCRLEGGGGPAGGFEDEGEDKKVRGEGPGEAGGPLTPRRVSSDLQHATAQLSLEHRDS

Sequence | binding signal (ERG) | binding signal (ELF1) | binding signal (ELK4) | binding signal (ETV4) | binding signal (ETV1) | binding signal (ERF)
TAGGAC | 0.844 | 0.86 | 0.828 | 0.908 | 0.799 | 0.754
AAGACC | 0.907 | 0.819 | 0.858 | 0.904 | 0.854 | 0.881
TGAGTA | 0.459 | 0.44 | 0.469 | 0.413 | 0.458 | 0.457
CACGTG | 0.612 | 0.615 | 0.672 | 0.625 | 0.621 | 0.662
GTGTGT | 0.532 | 0.501 | 0.587 | 0.492 | 0.514 | 0.482
CTAGAG | 0.821 | 0.865 | 0.914 | 0.856 | 0.869 | 0.838
CAACAG | 0.915 | 0.937 | 0.915 | 0.952 | 0.949 | 0.944
ACGGTC | 0.702 | 0.727 | 0.694 | 0.748 | 0.816 | 0.812
AGCCAT | 0.852 | 0.914 | 0.971 | 0.817 | 0.896 | 0.867
GGCCGT | 0.433 | 0.395 | 0.438 | 0.342 | 0.38 | 0.377
CGGCAG | 0.795 | 0.753 | 0.881 | 0.879 | 0.831 | 0.716
GAGGAC | 0.583 | 0.658 | 0.543 | 0.66 | 0.561 | 0.553
AAACGT | 0.924 | 0.952 | 0.896 | 0.927 | 0.95 | 0.958
GAGCGC | 0.586 | 0.617 | 0.581 | 0.552 | 0.572 | 0.634
AAGGAC | 0.855 | 0.894 | 0.801 | 0.857 | 0.793 | 0.8
GGAGCC | 0.354 | 0.328 | 0.34 | 0.328 | 0.313 | 0.333
CAGCGT | 0.822 | 0.773 | 0.975 | 0.782 | 0.84 | 0.791
ACAGTG | 0.48 | 0.497 | 0.494 | 0.49 | 0.447 | 0.513
GCTCGG | 0.692 | 0.79 | 0.661 | 0.77 | 0.922 | 0.804
GCGCTG | 0.834 | 0.912 | 0.883 | 0.908 | 0.899 | 0.984

Sequence | binding signal (ERG) | binding signal (ELF1) | binding signal (ELK4) | binding signal (ETV4) | binding signal (ETV1) | binding signal (ERF)
GTAACG | 0.916 | 0.945 | 1.03 | 0.958 | 0.904 | 0.911
CGAGCG | 0.96 | 0.878 | 0.891 | 0.898 | 0.963 | 0.939
ACGTGT | 0.64 | 0.648 | 0.682 | 0.657 | 0.668 | 0.641
CGTGTC | 0.781 | 0.758 | 0.774 | 0.781 | 0.75 | 0.683
ACCGCG | 0.893 | 0.874 | 0.918 | 0.867 | 0.881 | 0.914
ACGTGA | 0.259 | 0.277 | 0.286 | 0.259 | 0.249 | 0.287
TAGCCG | 0.838 | 0.909 | 0.89 | 0.866 | 0.855 | 0.896
ATCAGG | 0.926 | 0.95 | 0.99 | 0.91 | 0.885 | 0.87
GAGTAA | 0.556 | 0.569 | 0.594 | 0.552 | 0.563 | 0.568
GGGCAG | 0.558 | 0.629 | 0.588 | 0.565 | 0.603 | 0.636
GGCCAG | 0.467 | 0.477 | 0.475 | 0.416 | 0.453 | 0.402
AAGAGG | 0.872 | 0.861 | 0.829 | 0.842 | 0.945 | 0.862
GAGACC | 0.212 | 0.229 | 0.181 | 0.225 | 0.214 | 0.212
GGCGAG | 0.567 | 0.546 | 0.495 | 0.535 | 0.549 | 0.552
GGACTA | 0.84 | 0.861 | 0.825 | 0.867 | 0.857 | 0.848
GGAGCA | 0.498 | 0.473 | 0.446 | 0.461 | 0.482 | 0.492
CAGTCG | 0.191 | 0.18 | 0.177 | 0.164 | 0.167 | 0.188
CCGTTG | 0.961 | 0.948 | 0.905 | 0.907 | 0.827 | 0.94
GTGGCG | 0.855 | 0.77 | 0.919 | 0.861 | 0.72 | 0.785
GACGTG | 0.313 | 0.334 | 0.345 | 0.349 | 0.348 | 0.358

Sequence | binding signal (ERG) | binding signal (ELF1) | binding signal (ELK4) | binding signal (ETV4) | binding signal (ETV1) | binding signal (ERF)
ACGAGT | 0.686 | 0.786 | 0.765 | 0.741 | 0.801 | 0.761
CCAGTA | 0.674 | 0.694 | 0.68 | 0.693 | 0.666 | 0.638
TTAGAC | 0.841 | 0.838 | 0.908 | 0.871 | 0.844 | 0.862
ACCCAG | 0.749 | 0.708 | 0.694 | 0.72 | 0.655 | 0.756
ACGGTG | 0.495 | 0.554 | 0.524 | 0.54 | 0.485 | 0.502
GGCCCA | 0.875 | 0.835 | 0.877 | 0.828 | 0.82 | 0.767
AACAGT | 0.648 | 0.704 | 0.654 | 0.682 | 0.68 | 0.632
GGAGTC | 0.249 | 0.218 | 0.239 | 0.212 | 0.225 | 0.218
CGAGAC | 0.582 | 0.592 | 0.611 | 0.624 | 0.544 | 0.566
AGTTCA | 0.908 | 0.906 | 0.991 | 0.917 | 0.926 | 0.861
CGTGCA | 0.648 | 0.72 | 0.714 | 0.639 | 0.69 | 0.706
GGGGAC | 0.476 | 0.466 | 0.436 | 0.483 | 0.461 | 0.475
GGGACA | 0.681 | 0.679 | 0.658 | 0.708 | 0.692 | 0.742
CGCAGG | 0.847 | 0.812 | 0.912 | 0.971 | 0.917 | 0.852
ACAGAC | 0.834 | 0.79 | 0.918 | 0.854 | 0.848 | 0.782
GGGAGA | 0.354 | 0.337 | 0.297 | 0.304 | 0.332 | 0.344
AAAGGA | 0.941 | 0.847 | 0.783 | 0.834 | 0.889 | 0.887
GAGACG | 0.341 | 0.312 | 0.317 | 0.333 | 0.286 | 0.349
GGTGGG | 0.694 | 0.679 | 0.566 | 0.631 | 0.603 | 0.736
TGGCGG | 0.748 | 0.779 | 0.725 | 0.85 | 0.821 | 0.756

An excerpt of these results, as a markdown table.

| Sequence | binding signal (ERG) | binding signal (ELF1) | binding signal (ELK4) | binding signal (ETV4) | binding signal (ETV1) | binding signal (ERF) |
| --- | --- | --- | --- | --- | --- | --- |
| CGAGAC | 0.582 | 0.592 | 0.611 | 0.624 | 0.544 | 0.566 |
| AGTTCA | 0.908 | 0.906 | 0.991 | 0.917 | 0.926 | 0.861 |
| CGTGCA | 0.648 | 0.72 | 0.714 | 0.639 | 0.69 | 0.706 |
